Assay results published in PubChem BioAssay AID493014 (National Center for Advancing Translational Sciences (NCATS), 2011).
Some of the results follow. Shown are side measurements of this screen, not its main read-out; they come without a call. Compounds called inactive in the main read-out are mostly missing here. Potencies come from curve fits of mixed quality, noted in brackets.

Assay: qHTS Assay to Find Inhibitors of Chronic Active B-Cell Receptor Signaling
Details: ABC-DLBCL IkBa-CBG/CBR reporter, luminescence ratio (green luciferase fused to IkBa over red control in TMD8 lymphoma cells), 4 h
How it was run: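 TMD8 ABC-DLBCL cells carrying doxycycline-inducible green luciferase fused to IkappaBalpha plus unfused red luciferase were exposed to compounds (up to 46 uM) for 4 hrs at 37C. Activity came from the overlap-corrected green/red luminescence ratio.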

[1] = measured here: CBR red luminescence, cell number
[2] = measured here: IkBa-CBG green luminescence

Structure (SMILES) | AC50 [1] | AC50 [2]
Oc1cccc(/C=N/NC(=S)NCCN2CCOCC2)c1O | 11.2 µM [falling, partial curve] | –
O=C(N/N=C1/C(=O)c2cccc3cccc1c23)c1ccc(Cl)cc1 | 8.2 µM [falling, partial curve, poor fit] | –
COc1ccc(-c2csc3nc(C(C)(C)C)oc(=O)c23)cc1OC | 35.5 µM [falling, single point] | –
COc1ccc2c(C(=O)CCl)c[nH]c2c1 | 12.6 µM [falling, partial curve, poor fit] | –
COc1ccc(CCNC(=O)C(=O)NCC2OCCN2S(=O)(=O)c2ccc(Br)cc2)cc1 (centres undefined) | 0.00461 µM [rising, full curve, poor fit] | –
CCc1cc(=O)oc2cc(C)cc(OCC(=O)NCc3ccccn3)c12 | 0.0794 µM [rising, full curve, poor fit] | –
O=C(CCl)N(Cc1cc(=O)[nH]c2ccccc12)c1ccccc1 | 2.82 µM [falling, full curve, poor fit] | –
Cc1cc(=O)oc2cc(NC(=O)C3CCCC3)ccc12 | 4.47 µM [rising, partial curve, poor fit] | –
CCC(Sc1nnc(-c2ccc(OC)cc2)c(-c2ccc(OC)cc2)n1)C(=O)Nc1cccc(OC)c1 (centres undefined) | 2.24 µM [rising, partial curve, poor fit] | –
Oc1ccc(/C=N/Nc2nn3cnnc3c3ccccc23)cc1 | 5.01 µM [falling, partial curve] | –
CN(CCO)C(=O)c1c(NC(=O)c2ccccc2)sc2c1CCCC2 | 10 µM [falling, partial curve, poor fit] | –
CC(C)CN(C(=O)COC(=O)C12CC3CC(CC(O)(C3)C1)C2)C1CCS(=O)(=O)C1 (centres undefined) | 35.5 µM [rising, partial curve, poor fit] | –
COc1cccc(N=CC2=C(O)CC(C)(C)CC2=O)c1 | – | 16.4 µM [falling, single point]
Cc1csc2c(N3CCN(C(=O)Nc4ccccc4)CC3)ncnc12 | 3.16 µM [rising, partial curve] | –
CCCCCCc1nc2c(=O)[nH]c3ccccc3c2o1 | 29.1 µM [falling, single point] | 32.6 µM [rising, partial curve, poor fit]
O=C1CC(N2CCN(Cc3ccc4c(c3)OCO4)CC2)C(=O)N1CCc1ccccc1 (centres undefined) | 0.164 µM [falling, full curve, poor fit] | –
Cc1nnc(N2CCCC(C(=O)NCc3ccc(OC(C)C)cc3)C2)c2nn(-c3ccccc3)c(C)c12 (centres undefined) | 11.2 µM [falling, partial curve] | –
Cc1cc2nnn(-c3nnc(-c4ccccc4)c4ccccc34)c2cc1C | 0.398 µM [rising, partial curve, poor fit] | –
Cc1cccc(N2CCN(C(=O)c3ccc(NC(=O)C4CCCO4)cc3)CC2C)c1 (centres undefined) | 2.31 µM [rising, partial curve] | –
CCOC(=O)c1ccc(N2C(=O)c3n[nH]c(C)c3C2c2ccc(OC)cc2OC)cc1 (centres undefined) | 0.366 µM [falling, full curve, poor fit] | –
Cc1cccc(N/N=C(\C(N)=O)C2=NC(C)(C)Cc3ccccc32)c1 | 20.6 µM [falling, single point] | –

Structure (SMILES) | AC50 [1] | AC50 [2]
CCOC(=O)C1=C(N)Oc2cc(O)ccc2C1c1ccc([N+](=O)[O-])cc1 (centres undefined) | 20 µM [falling, single point] | –
Cc1cccc(C(=O)NN/C=C/C(=O)c2ccccc2)c1 | 12.6 µM [falling, partial curve] | –
Cc1nn(-c2ccccc2)c(N2CCCC2)c1/C=N/NC(=O)c1cc(-c2ccccn2)nc2ccccc12 | 29.1 µM [falling, single point] | –
C=CCn1c(SCC(=O)N2CC(=O)Nc3ccccc32)nc2scc(-c3cccs3)c2c1=O | 1.3 µM [falling, partial curve] | –
O=C(Nc1ccc(S(=O)(=O)N2CCN(c3ccccc3)CC2)cc1)c1cccs1 | 0.206 µM [falling, full curve, poor fit] | –
CCOC(=O)c1sc(=S)sc1SCc1cccc(C(F)(F)F)c1 | 32.6 µM [rising, single point] | –
COc1ccc(NC(=O)N(C)C[C@@H]2Oc3ccc(NC(=O)NC(C)C)cc3CC(=O)N([C@H](C)CO)C[C@@H]2C)cc1 | 25.9 µM [rising, single point] | –
COc1ccc(Cl)cc1NC(=O)Nc1ccccc1C(N)=O | 10 µM [rising, partial curve] | –
O=[N+]([O-])c1ccc(Nc2ccc(F)cc2)nc1 | 6.51 µM [rising, full curve] | –
CN(Cc1ccccc1)C(=O)C1CCN(Cc2cc3ccccc3n2Cc2ccccc2)CC1 | 35.5 µM [falling, partial curve, poor fit] | –
CC(C)(C)N1CC(C(=O)Nc2cccc(Cl)c2Cl)CC1=O (centres undefined) | 35.5 µM [rising, partial curve, poor fit] | –
Cc1ccc(C(=O)Nc2cccc(N3C(=O)C4CCC(C)CC4C3=O)c2)cc1 (centres undefined) | 35.5 µM [falling, single point] | –
O=C1OCC/C1=C\c1ccc2c(c1)OCO2 | 7.08 µM [falling, partial curve, poor fit] | –
O=C(Nc1cccc(C(=O)N2CCCCC2)c1)c1ccc(Cl)cc1 | 3.98 µM [falling, partial curve] | –
O=C(Nc1cccc2[nH]ncc12)c1ccc(F)cc1 | 14.1 µM [falling, partial curve] | –
O=C1C(Cc2ccc(Br)cc2)SC(=Nc2ccccc2)N1c1ccccc1 (centres undefined) | 2.59 µM [rising, partial curve, poor fit] | –
O=C(COc1ccc(S(=O)(=O)Nc2ccccc2)cc1)NCc1cccnc1 | 0.82 µM [rising, full curve, poor fit] | –
CCOc1ccc(C2C(C(=O)c3cccs3)=C(O)C(=O)N2Cc2cccnc2)cc1OC (centres undefined) | 35.5 µM [rising, single point] | –
Cc1ccc(S(=O)(=O)N(CC(=O)NCc2ccco2)c2ccccc2C)cc1 | 12.6 µM [falling, single point] | –
CCC(C(=O)O)n1nnc(-c2ccc(-c3ccc(OC)cc3)cc2)n1 (centres undefined) | 6.51 µM [rising, single point] | –
Cn1cccc1C(=O)Nc1nccs1 | 12.6 µM [falling, partial curve] | –

Structure (SMILES) | AC50 [1] | AC50 [2]
CCOc1ccc(C(C)=O)cc1Cn1nc(C(=O)O)c2ccccc2c1=O | 3.55 µM [rising, full curve, poor fit] | –
COC(=O)c1ccc(-c2cc3onc(-c4ccccc4)c3c(=O)n2C)cc1 | 2.91 µM [rising, full curve, poor fit] | –
COc1ccc(C=C(C#N)C#N)c(CSc2ccccn2)c1 | 2.51 µM [rising, partial curve] | –
COc1ccc(Cl)cc1NC(=O)CN(C)C(=O)C12CC3CC(CC(Cl)(C3)C1)C2 | 35.5 µM [falling, single point] | –
O=C(/C=C/c1ccc(-c2ccccc2[N+](=O)[O-])o1)c1ccc(Br)cc1 | 29.1 µM [falling, single point] | –
COc1cc(C(=O)NC2CC(C)(C)NC(C)(C)C2)cc(OC)c1OC | 35.5 µM [rising, partial curve, poor fit] | –
O=C(CNC(=O)c1ccc(-c2ccccc2)cc1)OCc1c(F)cccc1Cl | 6.51 µM [rising, partial curve] | –
CC(C)c1cc(N2CCN(C(=O)c3ccco3)CC2)n2c(nc3ccccc32)c1C#N | 29.1 µM [rising, single point] | –
COc1ccccc1NS(=O)(=O)c1ccc(S(=O)(=O)N2CCOCC2)cc1 | 5.01 µM [rising, single point] | –
NCC1CC2c3ccccc3C1c1ccccc12 (centres undefined) | 22.4 µM [falling, single point] | –
CC(/C=C/c1ccco1)=N/NC(=O)Cc1cccs1 | 6.31 µM [rising, single point] | –
COc1ccc(N2CCN(c3nc4c(c(=O)[nH]c(=O)n4C)n3Cc3cccc(C)c3)CC2)cc1 | 6.51 µM [rising, single point] | –
Cc1ccc(N(C(=O)Cc2cccs2)C2C=CS(=O)(=O)C2)cc1Cl (centres undefined) | 11.2 µM [falling, partial curve] | –
CC(C)CN(C(=O)CCNC(=O)c1ccc(Cl)cc1)C1CCS(=O)(=O)C1 (centres undefined) | 20.6 µM [rising, partial curve, poor fit] | –
CCOc1cc(/C=C\c2[nH]c(=O)[nH]c(=O)c2[N+](=O)[O-])ccc1OC(C)CC (centres undefined) | 0.366 µM [rising, full curve, poor fit] | –
CCOC(=O)c1cnn(-c2ccccn2)c1N | 22.4 µM [falling, single point] | –
CC(NC(=O)c1ccc([N+](=O)[O-])o1)C12CC3CC(CC(C3)C1)C2 (centres undefined) | 31.6 µM [falling, single point] | –
Cc1noc(C)c1CSc1nc2ccccc2c(=O)n1-c1ccc(Cl)cc1 | 7.31 µM [falling, partial curve] | –
COc1cc2cc(C[C@H](C)O)oc(=O)c2cc1OC | 18.4 µM [rising, single point] | –
COc1ccc(Cc2nc(C(=O)Nc3ccc(F)cc3)cs2)cc1 | 3.66 µM [falling, partial curve, poor fit] | –
CCOC(=O)c1cc(-c2ccc(/C=C3/C(=O)N(c4ccc(C(=O)O)cc4)N=C3C)o2)ccc1Cl | 8.91 µM [falling, partial curve] | –
